Results are given in words; binding and its absence hold for the method and conditions named. Binding seen in cells or lysates may run through a third protein. These calls come from enrichment with a bait or labelling near it, and not all partners need be listed.
Target: T1, TNF receptor-associated factor 4 (TRAF4), endogenous in MSCs (human (endogenous in MSCs)) (UniProt Q9BUZ4)
T1 sequence: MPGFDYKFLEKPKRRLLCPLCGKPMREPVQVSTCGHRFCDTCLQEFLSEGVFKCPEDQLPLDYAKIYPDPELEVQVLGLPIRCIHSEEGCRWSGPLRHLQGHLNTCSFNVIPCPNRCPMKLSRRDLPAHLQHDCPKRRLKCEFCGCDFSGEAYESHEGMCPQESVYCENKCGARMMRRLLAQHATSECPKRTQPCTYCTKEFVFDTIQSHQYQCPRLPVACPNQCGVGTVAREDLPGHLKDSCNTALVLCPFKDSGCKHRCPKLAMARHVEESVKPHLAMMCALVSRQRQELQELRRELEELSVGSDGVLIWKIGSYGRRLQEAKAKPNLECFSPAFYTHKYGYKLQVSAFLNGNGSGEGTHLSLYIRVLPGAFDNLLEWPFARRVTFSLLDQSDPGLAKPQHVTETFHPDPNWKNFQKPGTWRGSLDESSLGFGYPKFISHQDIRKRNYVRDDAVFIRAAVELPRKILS
Test: affinity purification with mass spectrometry; MSCs during osteogenesis, extracts in modified RIPA buffer; immunoprecipitation with anti-TRAF4 and protein-G agarose at 4 °C; SDS-PAGE, Coomassie blue, differential bands analysed by LC-MS/MS

Chains of the proteins cited; added tags and fusions are not shown.
UniProt Q9HAU4: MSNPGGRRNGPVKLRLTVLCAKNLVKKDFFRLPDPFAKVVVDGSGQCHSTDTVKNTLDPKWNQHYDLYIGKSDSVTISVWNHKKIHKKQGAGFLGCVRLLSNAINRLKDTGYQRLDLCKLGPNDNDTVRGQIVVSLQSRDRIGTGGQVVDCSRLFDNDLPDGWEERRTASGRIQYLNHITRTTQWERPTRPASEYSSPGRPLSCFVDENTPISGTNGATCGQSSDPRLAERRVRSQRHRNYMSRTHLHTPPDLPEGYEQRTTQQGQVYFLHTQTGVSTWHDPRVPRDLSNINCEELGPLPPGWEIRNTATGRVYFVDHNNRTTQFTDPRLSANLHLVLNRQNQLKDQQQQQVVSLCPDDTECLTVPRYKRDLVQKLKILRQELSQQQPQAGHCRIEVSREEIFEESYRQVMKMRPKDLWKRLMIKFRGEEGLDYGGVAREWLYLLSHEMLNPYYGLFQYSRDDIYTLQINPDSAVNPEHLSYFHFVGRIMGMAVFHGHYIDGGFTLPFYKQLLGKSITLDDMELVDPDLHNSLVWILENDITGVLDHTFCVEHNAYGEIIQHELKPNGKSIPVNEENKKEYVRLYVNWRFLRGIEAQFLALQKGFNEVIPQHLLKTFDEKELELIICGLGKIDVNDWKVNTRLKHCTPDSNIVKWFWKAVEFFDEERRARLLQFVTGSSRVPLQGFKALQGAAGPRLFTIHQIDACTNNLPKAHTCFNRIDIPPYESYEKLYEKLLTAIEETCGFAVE

binding: binds
Substance: Smad ubiquitination-related factor 2 (Smurf2), endogenous in MSCs (from UniProt Q9HAU4 1-748)
